According to the supplement of paper PMC10849652:
This is one part of the list.

By UniProt entry, the sequences of proteins in these tests, tags left out. Where a name states a change or a piece, a line headed by the entry shows the natural chain unless it says otherwise.
UniProt O15355: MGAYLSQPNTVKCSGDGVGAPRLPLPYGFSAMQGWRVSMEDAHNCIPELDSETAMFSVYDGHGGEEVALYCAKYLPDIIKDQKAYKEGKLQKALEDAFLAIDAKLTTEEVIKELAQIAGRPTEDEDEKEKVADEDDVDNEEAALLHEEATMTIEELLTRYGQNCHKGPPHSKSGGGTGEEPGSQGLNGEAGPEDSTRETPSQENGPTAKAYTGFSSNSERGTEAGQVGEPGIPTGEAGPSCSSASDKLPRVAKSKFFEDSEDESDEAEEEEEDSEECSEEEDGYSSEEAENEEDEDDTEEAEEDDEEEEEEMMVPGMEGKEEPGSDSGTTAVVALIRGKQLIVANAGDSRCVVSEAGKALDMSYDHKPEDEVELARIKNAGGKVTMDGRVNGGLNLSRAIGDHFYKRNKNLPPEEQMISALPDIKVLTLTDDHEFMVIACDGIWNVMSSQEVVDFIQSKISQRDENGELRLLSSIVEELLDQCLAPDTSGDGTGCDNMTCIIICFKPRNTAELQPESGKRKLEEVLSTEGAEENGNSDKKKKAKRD
UniProt Q13131: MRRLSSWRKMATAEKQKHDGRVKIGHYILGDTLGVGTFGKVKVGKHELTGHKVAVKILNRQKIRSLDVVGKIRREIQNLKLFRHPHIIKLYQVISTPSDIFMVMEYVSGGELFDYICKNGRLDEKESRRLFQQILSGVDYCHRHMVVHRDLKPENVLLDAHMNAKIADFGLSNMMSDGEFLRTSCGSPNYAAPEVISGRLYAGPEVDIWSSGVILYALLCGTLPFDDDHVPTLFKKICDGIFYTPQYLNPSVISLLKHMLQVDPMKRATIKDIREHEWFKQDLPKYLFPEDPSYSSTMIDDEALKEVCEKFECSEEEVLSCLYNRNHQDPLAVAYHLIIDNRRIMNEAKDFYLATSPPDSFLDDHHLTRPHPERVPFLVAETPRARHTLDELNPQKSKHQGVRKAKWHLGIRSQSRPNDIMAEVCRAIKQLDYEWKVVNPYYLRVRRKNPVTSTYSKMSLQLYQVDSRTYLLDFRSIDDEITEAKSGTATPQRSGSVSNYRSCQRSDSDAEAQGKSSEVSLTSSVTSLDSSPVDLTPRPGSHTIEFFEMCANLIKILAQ
UniProt K7ELL7: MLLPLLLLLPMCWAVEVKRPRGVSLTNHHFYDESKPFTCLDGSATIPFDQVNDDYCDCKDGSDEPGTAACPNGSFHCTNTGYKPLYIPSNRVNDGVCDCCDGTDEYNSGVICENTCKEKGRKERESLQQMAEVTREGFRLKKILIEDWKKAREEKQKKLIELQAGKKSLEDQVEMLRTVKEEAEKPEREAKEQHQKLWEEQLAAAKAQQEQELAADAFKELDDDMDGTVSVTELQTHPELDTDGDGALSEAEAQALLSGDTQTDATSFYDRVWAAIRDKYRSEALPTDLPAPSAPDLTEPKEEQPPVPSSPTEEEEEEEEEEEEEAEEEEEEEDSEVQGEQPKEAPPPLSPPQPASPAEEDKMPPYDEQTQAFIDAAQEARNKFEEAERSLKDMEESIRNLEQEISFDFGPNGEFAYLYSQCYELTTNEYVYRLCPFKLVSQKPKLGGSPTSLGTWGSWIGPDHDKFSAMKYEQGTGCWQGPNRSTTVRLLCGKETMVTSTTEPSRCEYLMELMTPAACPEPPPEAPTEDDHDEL
UniProt Q86WR7: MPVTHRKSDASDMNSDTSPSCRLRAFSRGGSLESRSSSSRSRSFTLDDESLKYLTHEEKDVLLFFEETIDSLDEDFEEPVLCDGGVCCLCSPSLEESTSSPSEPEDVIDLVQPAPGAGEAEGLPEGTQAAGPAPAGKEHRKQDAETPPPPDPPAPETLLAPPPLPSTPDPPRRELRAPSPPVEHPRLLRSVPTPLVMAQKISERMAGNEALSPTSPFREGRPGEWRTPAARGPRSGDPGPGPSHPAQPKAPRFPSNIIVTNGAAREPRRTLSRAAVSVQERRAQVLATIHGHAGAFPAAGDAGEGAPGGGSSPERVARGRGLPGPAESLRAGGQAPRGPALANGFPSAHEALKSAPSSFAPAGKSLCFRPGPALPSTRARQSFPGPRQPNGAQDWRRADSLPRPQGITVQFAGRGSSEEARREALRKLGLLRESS
UniProt Q8WWY3: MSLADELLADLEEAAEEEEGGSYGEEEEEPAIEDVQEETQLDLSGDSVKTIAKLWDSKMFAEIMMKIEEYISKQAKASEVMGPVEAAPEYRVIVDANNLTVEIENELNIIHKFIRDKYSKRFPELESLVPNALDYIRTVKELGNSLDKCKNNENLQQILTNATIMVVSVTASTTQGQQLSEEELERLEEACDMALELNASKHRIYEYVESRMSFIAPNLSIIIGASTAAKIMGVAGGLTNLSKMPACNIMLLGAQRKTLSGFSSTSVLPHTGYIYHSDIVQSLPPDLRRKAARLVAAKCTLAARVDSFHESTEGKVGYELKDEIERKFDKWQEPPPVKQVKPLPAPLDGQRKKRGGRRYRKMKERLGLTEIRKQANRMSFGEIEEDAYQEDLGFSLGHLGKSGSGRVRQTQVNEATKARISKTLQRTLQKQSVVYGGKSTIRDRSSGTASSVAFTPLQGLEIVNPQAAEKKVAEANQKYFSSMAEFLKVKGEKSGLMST
UniProt Q16537, whole entry, looked up: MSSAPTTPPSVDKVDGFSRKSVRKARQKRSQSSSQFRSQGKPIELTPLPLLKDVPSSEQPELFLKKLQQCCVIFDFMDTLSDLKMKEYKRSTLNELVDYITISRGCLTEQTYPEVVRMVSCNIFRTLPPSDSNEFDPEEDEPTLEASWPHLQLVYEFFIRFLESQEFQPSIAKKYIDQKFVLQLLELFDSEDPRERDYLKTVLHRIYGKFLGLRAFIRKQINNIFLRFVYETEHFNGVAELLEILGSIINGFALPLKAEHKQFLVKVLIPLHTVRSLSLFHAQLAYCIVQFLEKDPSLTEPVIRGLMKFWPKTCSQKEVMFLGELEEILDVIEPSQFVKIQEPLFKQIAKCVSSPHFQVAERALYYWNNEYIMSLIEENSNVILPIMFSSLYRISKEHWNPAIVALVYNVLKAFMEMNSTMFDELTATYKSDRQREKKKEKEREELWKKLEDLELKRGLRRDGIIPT
UniProt P41219, whole entry, looked up: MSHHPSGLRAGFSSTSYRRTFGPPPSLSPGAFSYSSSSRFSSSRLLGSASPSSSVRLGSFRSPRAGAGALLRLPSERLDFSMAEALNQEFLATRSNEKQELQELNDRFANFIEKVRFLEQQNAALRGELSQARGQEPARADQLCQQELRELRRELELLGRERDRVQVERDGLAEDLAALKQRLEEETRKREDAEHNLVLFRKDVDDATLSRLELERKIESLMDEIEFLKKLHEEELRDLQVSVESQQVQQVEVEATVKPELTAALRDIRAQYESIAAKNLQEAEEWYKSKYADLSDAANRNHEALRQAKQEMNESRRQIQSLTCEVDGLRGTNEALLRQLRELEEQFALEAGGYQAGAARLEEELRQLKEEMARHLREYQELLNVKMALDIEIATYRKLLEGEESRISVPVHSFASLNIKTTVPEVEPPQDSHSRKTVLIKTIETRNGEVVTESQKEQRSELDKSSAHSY
UniProt Q5VTL8: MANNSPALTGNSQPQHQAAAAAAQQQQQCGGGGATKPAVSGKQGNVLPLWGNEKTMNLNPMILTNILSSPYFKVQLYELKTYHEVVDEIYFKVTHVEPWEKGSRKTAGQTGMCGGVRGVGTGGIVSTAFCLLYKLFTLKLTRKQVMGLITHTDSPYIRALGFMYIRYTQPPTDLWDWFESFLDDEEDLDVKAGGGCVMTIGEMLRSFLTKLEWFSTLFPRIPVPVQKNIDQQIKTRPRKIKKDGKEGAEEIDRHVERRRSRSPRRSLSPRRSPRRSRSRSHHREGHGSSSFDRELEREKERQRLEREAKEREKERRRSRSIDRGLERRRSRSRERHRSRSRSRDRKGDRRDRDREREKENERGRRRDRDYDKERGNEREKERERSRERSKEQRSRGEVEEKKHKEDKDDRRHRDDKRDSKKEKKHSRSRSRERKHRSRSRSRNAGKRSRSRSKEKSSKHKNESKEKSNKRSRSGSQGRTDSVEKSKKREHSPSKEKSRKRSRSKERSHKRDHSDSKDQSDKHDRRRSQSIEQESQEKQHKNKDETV
UniProt Q6ZMI0: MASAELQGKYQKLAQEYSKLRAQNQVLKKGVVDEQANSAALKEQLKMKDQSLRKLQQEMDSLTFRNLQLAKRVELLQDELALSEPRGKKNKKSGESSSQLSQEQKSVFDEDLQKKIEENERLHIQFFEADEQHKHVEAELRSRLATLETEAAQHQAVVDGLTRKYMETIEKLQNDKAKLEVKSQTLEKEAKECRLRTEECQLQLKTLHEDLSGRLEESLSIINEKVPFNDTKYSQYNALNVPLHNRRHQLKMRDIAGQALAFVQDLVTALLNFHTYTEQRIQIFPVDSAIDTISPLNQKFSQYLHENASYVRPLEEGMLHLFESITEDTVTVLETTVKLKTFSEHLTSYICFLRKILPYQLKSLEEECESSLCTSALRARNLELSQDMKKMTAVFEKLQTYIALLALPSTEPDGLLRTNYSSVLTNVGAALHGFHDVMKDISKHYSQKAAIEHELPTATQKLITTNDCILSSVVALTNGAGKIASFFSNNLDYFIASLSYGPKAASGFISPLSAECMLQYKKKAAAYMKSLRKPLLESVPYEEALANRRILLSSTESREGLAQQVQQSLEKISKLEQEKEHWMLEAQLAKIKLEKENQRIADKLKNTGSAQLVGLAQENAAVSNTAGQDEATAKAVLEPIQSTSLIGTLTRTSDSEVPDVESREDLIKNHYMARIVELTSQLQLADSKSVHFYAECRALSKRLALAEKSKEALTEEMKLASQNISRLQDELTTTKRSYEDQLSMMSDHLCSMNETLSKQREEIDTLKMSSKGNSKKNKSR

Legend:
Test in all cases: log2 fold change, soluble protein after heating vs DMSO (PISA); higher = thermal stabilisation; K562 cells, 10 uM, 30 min; active = over 0.2 and 3.5 SD of the protein, either way, in both replicates (recomputed)
[1] = compound: CS(=O)(=O)c1ccc(-c2cnc(N)c(C(=O)Nc3ccccc3)n2)cc1
Outline: (§1)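 Values are thermal stability changes relative to control samples and are taken from duplicates. They are stated as log2 fold changes. Before quantification by TMTpro 16plex LC-MS/MS with equalised channel sums, K562 cells at 2×10^6 cells/mL were treated with 10 μM compound for 30 min, heated in aliquots for 3 min across 48°C-58°C, pooled, extracted in PBS with 0.5% NP-40 at 4°C, and centrifuged at 21,000xg for 90 min to give the soluble supernatant.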

crizotinib = compound: C[C@@H](Oc1cc(-c2cnn(C3CCNCC3)c2)cnc1N)c1c(Cl)ccc(F)c1Cl [crizotinib]
Outline: as §1

[2] = compound: C[C@@H]1COCCN1C2=NC(=NC(=C2)C3(CC3)S(=O)(=O)C)C4=C5C=CNC5=CC=C4
Outline: as §1

[3] = compound: C[C@H](C1=CC=C(C=C1)C(=O)NC2=C3C=CNC3=NC=C2)N
Outline: as §1

gandotinib = compound: Cc1cc(Nc2cc(CN3CCOCC3)c3nc(C)c(Cc4ccc(Cl)cc4F)n3n2)n[nH]1 [gandotinib]
Outline: as §1

[4] = compound: Cc1cc(SCc2sc(-c3ccc(C(F)(F)F)cc3)nc2C)ccc1OCC(=O)O
Outline: as §1

doramapimod = compound: Cc1ccc(-n2nc(C(C)(C)C)cc2NC(=O)Nc2ccc(OCCN3CCOCC3)c3ccccc23)cc1 [doramapimod]
Outline: as §1

ispinesib = compound: Cc1ccc(C(=O)N(CCCN)[C@@H](c2nc3cc(Cl)ccc3c(=O)n2Cc2ccccc2)C(C)C)cc1 [ispinesib]
Outline: as §1

bafetinib = compound: Cc1ccc(NC(=O)c2ccc(CN3CC[C@H](N(C)C)C3)c(C(F)(F)F)c2)cc1Nc1nccc(-c2cncnc2)n1 [bafetinib]
Outline: as §1

[5] = compound: Cc1cccc(CC(=O)N2CCc3c2ccc(-c2cn(C)c4ncnc(N)c24)c3F)n1
Outline: as §1

nilotinib = compound: Cc1cn(-c2cc(NC(=O)c3ccc(C)c(Nc4nccc(-c5cccnc5)n4)c3)cc(C(F)(F)F)c2)cn1 [nilotinib]
Outline: as §1

[6] = compound: Cc1nc(Nc2n[nH]c3c2CN(C(=O)N[C@H](CN(C)C)c2ccccc2)C3(C)C)c2sccc2n1
Outline: as §1

dasatinib = compound: Cc1nc(Nc2ncc(C(=O)Nc3c(C)cccc3Cl)s2)cc(N2CCN(CCO)CC2)n1 [dasatinib]
Outline: as §1

[7] = compound: Cc1ncc(-c2ccnc(Nc3ccc(S(C)(=O)=O)cc3)n2)n1C(C)C
Outline: as §1

[8] = compound: Cn1cc(-c2ccc3c(c2)CCN3C(=O)Cc2cccc(C(F)(F)F)c2)c2c(N)ncnc21
Outline: as §1

[9] = compound: Cn1cc(-c2ccc3nnc(C(F)(F)c4ccc5ncccc5c4)n3n2)cn1
Outline: as §1

tipifarnib = compound: Cn1cncc1[C@@](N)(c1ccc(Cl)cc1)c1ccc2c(c1)c(-c1cccc(Cl)c1)cc(=O)n2C [tipifarnib]
Outline: as §1

mubritinib = compound: FC(F)(F)c1ccc(/C=C/c2nc(COc3ccc(CCCCn4ccnn4)cc3)co2)cc1 [mubritinib]
Outline: as §1

duvelisib = compound: C[C@H](Nc1ncnc2nc[nH]c12)c1cc2cccc(Cl)c2c(=O)n1-c1ccccc1 [duvelisib]
Outline: as §1

tozasertib = compound: Cc1cc(Nc2cc(N3CCN(C)CC3)nc(Sc3ccc(NC(=O)C4CC4)cc3)n2)n[nH]1 [tozasertib]
Outline: as §1

Target	log2 fold change [1]	log2 fold change (crizotinib)	log2 fold change [2]	log2 fold change [3]	log2 fold change (gandotinib)	log2 fold change [4]	log2 fold change (doramapimod)	log2 fold change (ispinesib)	log2 fold change (bafetinib)	log2 fold change [5]	log2 fold change (nilotinib)	log2 fold change [6]	log2 fold change (dasatinib)	log2 fold change [7]	log2 fold change [8]	log2 fold change [9]	log2 fold change (tipifarnib)	log2 fold change (mubritinib)	log2 fold change (duvelisib)	log2 fold change (tozasertib)
PPM1G (UniProt O15355)	inactive: 0.114	inactive: -0.028	inactive: 0.045	inactive: -0.083	inactive: -0.026	inactive: 0.171	inactive: -0.008	inactive: -0.055	inactive: 0.001	inactive: 0.048	inactive: -0.041	inactive: -0.05	inactive: -0.097	inactive: 0	inactive: 0.096	inactive: 0.117	inactive: -0.133	inactive: 0.105		
PRKAA1 isoform 2 (UniProt Q13131)	inactive: 0	inactive: -0.156	inactive: -0.007	inactive: -0.011	active: -0.235	inactive: -0.036	inactive: -0.019	inactive: -0.003	inactive: -0.096	inactive: 0.035	inactive: -0.029	active: -0.206	inactive: -0.069	inactive: -0.011	inactive: 0.082	inactive: 0.028	inactive: -0.012	inactive: -0.012		
PRKCSH (UniProt K7ELL7)	inactive: 0.007	inactive: 0.081	inactive: 0.005	inactive: 0.044		inactive: -0.009	inactive: -0.05	inactive: -0.011	inactive: -0.091		inactive: -0.03	inactive: -0.072	inactive: -0.132	inactive: 0.028	inactive: 0.031	inactive: -0.075	inactive: 0.016	inactive: 0.157	inactive: -0.03	inactive: -0.072
PROSER2 (UniProt Q86WR7)	inactive: 0.026	inactive: -0.035	inactive: 0.064	inactive: 0.05	inactive: 0.042	inactive: 0.029	inactive: 0	inactive: 0.001	inactive: -0.05	inactive: -0.064	inactive: 0.084	inactive: -0.156	inactive: -0.099	inactive: 0	inactive: 0.039	inactive: 0.073	inactive: 0.04	inactive: -0.056	inactive: 0.046	inactive: -0.168
PRPF31 (UniProt Q8WWY3)	inactive: 0.041	inactive: 0.013	inactive: 0.181	inactive: 0.137	inactive: -0.044	inactive: 0.159	inactive: 0.069	inactive: -0.029	inactive: -0.012	inactive: 0.01	inactive: -0.037	active: -0.572	inactive: -0.274	inactive: -0.387	inactive: 0.055	inactive: 0.053	inactive: -0.031	inactive: -0.014		
PPP2R5E (UniProt Q16537)	inactive: -0.024	inactive: -0.15	inactive: 0.037	inactive: 0.105	inactive: 0.167	inactive: 0.015	inactive: -0.01	inactive: -0.024	inactive: -0.023	inactive: -0.058	inactive: -0.11	inactive: 0.057	inactive: -0.074	inactive: -0.059	inactive: -0.049	inactive: -0.037	inactive: -0.159	inactive: 0.018		
PRPH isoform 2 (UniProt P41219)	inactive: 0.065	inactive: 0.212		inactive: 0.076	inactive: 0.131	inactive: 0.134	inactive: 0.113	inactive: -0.195	inactive: -0.171	inactive: 0.001	inactive: 0.104	inactive: -0.141	inactive: 0.356	inactive: -0.048	inactive: -0.276	inactive: -0.222	inactive: 0.353	inactive: -0.169	inactive: -0.244	inactive: 0.34
PRPF38B (UniProt Q5VTL8)	inactive: -0.051	inactive: -0.026	inactive: 0.058	active: -0.269	inactive: 0.001	inactive: -0.002	inactive: 0.005	inactive: 0.193	inactive: -0.016	inactive: -0.015	inactive: 0.049	active: -1.9	inactive: -0.022	inactive: -0.008	inactive: 0.012	inactive: -0.04	inactive: -0.067	inactive: 0.004		
PPP1R21 (UniProt Q6ZMI0)	inactive: -0.051		inactive: 0.148	inactive: 0.062	inactive: -0.052	inactive: -0.007			inactive: -0.177	inactive: 0.08	inactive: -0.183	inactive: 0.022	inactive: -0.282	inactive: -0.013	inactive: -0.05		inactive: -0.124		inactive: 0.004	
